{
  "source": "paper PMC7819943",
  "about": "“Rice protein-binding microarrays: a tool to detect cis-acting elements near promoter regions in rice”",
  "note": "Some of the results follow.",
  "data": [
    {"target": "T1, OsSMF1 (Oryza sativa, UniProt Q6ZLB0 1-436)", "T1 sequence": "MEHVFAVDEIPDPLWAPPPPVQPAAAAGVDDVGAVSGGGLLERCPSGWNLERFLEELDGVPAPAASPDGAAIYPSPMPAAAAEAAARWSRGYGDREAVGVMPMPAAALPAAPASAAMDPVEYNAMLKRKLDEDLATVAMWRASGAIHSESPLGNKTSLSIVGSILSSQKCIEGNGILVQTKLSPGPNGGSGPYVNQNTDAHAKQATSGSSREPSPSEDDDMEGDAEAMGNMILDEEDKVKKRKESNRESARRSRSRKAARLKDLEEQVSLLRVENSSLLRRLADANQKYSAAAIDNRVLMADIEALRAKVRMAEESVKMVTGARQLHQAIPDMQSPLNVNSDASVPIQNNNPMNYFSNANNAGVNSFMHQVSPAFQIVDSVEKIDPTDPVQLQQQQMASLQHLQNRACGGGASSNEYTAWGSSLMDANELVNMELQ", "test": "protein-binding microarray (RPBM); PBS, 2% BSA, 51.3 ng/ul salmon testes DNA, 50 uM zinc acetate, 200 nM TF, 25 C, 1 h; high values mean tight binding", "conditions": "protein: recombinant; tags: N-terminal polyhistidine and DsRed monomer fusion (pET32a); chain copies: 2; label: CyDye5-dUTP incorporated in the synthesized complementary strand; 3' TTTTT single-stranded linker to array surface; dsDNA, one strand shown", "outline": "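The binding signal is fluorescence intensity per feature, in arbitrary units, read on an Axon 4000B scanner. Polyhistidine- and DsRed-tagged transcription factors (N-terminal fusions) from E. coli BL21-CodonPlus were purified on Ni–NTA and applied at 200 nM for 1 h at 25 °C to a double-stranded, BSA-blocked custom Agilent array in buffer with 50 µM zinc acetate.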", "values": [
      {"sequence": "GCGGCGTCCAAGAACGGATTGAGATGGTGCTCCTCGCCATCGGAGTCACCTAGTGCAG", "binding signal": "3140 fluorescence intensity (a.u.)"},
      {"sequence": "GTCGAGCGGCAGCAGCAGCATGACTCTGACTCCGACGGCACGGAGTCACCTAGTGCAG", "binding signal": "3160 fluorescence intensity (a.u.)"},
      {"sequence": "TGCGCCATGTTGTCATGGCGGGATTATCCCCATTGACGCCCGGAGTCACCTAGTGCAG", "binding signal": "4040 fluorescence intensity (a.u.)"},
      {"sequence": "TTGGATTGTGTGCTGGTTGCCTCCGATGGTCGCAAGGGCCCGGAGTCACCTAGTGCAG", "binding signal": "3250 fluorescence intensity (a.u.)"},
      {"sequence": "ACATGTGTTCACGCGTGTGTATCTTCTACTCCCTCCGTTTCGGAGTCACCTAGTGCAG", "binding signal": "43200 fluorescence intensity (a.u.)"},
      {"sequence": "ACGCAGGTGACGTGTCTCCCTGTGCCTACCAAATGTGGGCCGGAGTCACCTAGTGCAG", "binding signal": "15200 fluorescence intensity (a.u.)"},
      {"sequence": "CTCGCCATCTCCAGCTCCGACCCCTGGCCCTTCTCCCTTTCGGAGTCACCTAGTGCAG", "binding signal": "3220 fluorescence intensity (a.u.)"},
      {"sequence": "CTCGGGAGCCCGGTCATCACCTACTCCGCCCGCCGCCACCCGGAGTCACCTAGTGCAG", "binding signal": "4700 fluorescence intensity (a.u.)"},
      {"sequence": "GTTTTAAGGGTATTTTGGGTATTTCTTAAAGAAAAGCCCACGGAGTCACCTAGTGCAG", "binding signal": "15300 fluorescence intensity (a.u.)"},
      {"sequence": "ATTAAAATCACGTGACTCTCTCTTGCGTGGAAGCAACACACGGAGTCACCTAGTGCAG", "binding signal": "5000 fluorescence intensity (a.u.)"},
      {"sequence": "AAGCTTAATTTGTCGTTAAGCACCTGCAGAGCTCGCATGACGGAGTCACCTAGTGCAG", "binding signal": "4560 fluorescence intensity (a.u.)"},
      {"sequence": "TTGCTAGCATTAGATAGGAACCTGCTGACTGGACCACTACCGGAGTCACCTAGTGCAG", "binding signal": "11600 fluorescence intensity (a.u.)"},
      {"sequence": "CGTCTCCGCCGCCACGTCGCCGGCCGCCGGACCTCCTCTCCGGAGTCACCTAGTGCAG", "binding signal": "8900 fluorescence intensity (a.u.)"},
      {"sequence": "ACCGGCACTTGCTTCACAAGTGACATGTAAAAGGAGGGTGCGGAGTCACCTAGTGCAG", "binding signal": "3610 fluorescence intensity (a.u.)"},
      {"sequence": "CCTATTCCATTGTTCTTTGGTTTGCTGGTGTTATTCCCCGCGGAGTCACCTAGTGCAG", "binding signal": "3630 fluorescence intensity (a.u.)"},
      {"sequence": "TGCTTAAGCTTTGTTCTGTGAAACCAGGGCGCCAACGGGGCGGAGTCACCTAGTGCAG", "binding signal": "3450 fluorescence intensity (a.u.)"},
      {"sequence": "CGTTTCTTTAGAAGTGCACACATGACACATGTGTCGGGTCCGGAGTCACCTAGTGCAG", "binding signal": "3930 fluorescence intensity (a.u.)"},
      {"sequence": "GTACTGATCTCTATGGCTAGCCAGCTGGCTCGACCTGGTTCGGAGTCACCTAGTGCAG", "binding signal": "3630 fluorescence intensity (a.u.)"},
      {"sequence": "AGCGGTACAAGGTGGAGTGCCAGCGGCTCGCCGGCTCGGGCGGAGTCACCTAGTGCAG", "binding signal": "28200 fluorescence intensity (a.u.)"},
      {"sequence": "TCACATCAACTAGATTATTAAGAACAAATTGATTAATATTCGGAGTCACCTAGTGCAG", "binding signal": "26900 fluorescence intensity (a.u.)"},
      {"sequence": "TACTTTATCCGCGGCGGGTAGCTGGGGAGGGAGGGGAGGCCGGAGTCACCTAGTGCAG", "binding signal": "5170 fluorescence intensity (a.u.)"},
      {"sequence": "AGGAGCTGATTGGGCCATTTTCATCACACGTCACATCGGCCGGAGTCACCTAGTGCAG", "binding signal": "10000 fluorescence intensity (a.u.)"},
      {"sequence": "AGGACCACCGCGATGGTCGCGCTGTCAGCGGCGAGGATGCCGGAGTCACCTAGTGCAG", "binding signal": "5360 fluorescence intensity (a.u.)"},
      {"sequence": "GGCGCGCAGAAATCAGGAGCGATGAGTTGGGAAAACTGGGCGGAGTCACCTAGTGCAG", "binding signal": "3340 fluorescence intensity (a.u.)"},
      {"sequence": "CTGGTTGTGTGGGCGGAAGTTGGCTATGCTGGCGCATGGGCGGAGTCACCTAGTGCAG", "binding signal": "3420 fluorescence intensity (a.u.)"},
      {"sequence": "CCGTGTTAATTACGGACAGAATAACCTCCATATACGTGGTCGGAGTCACCTAGTGCAG", "binding signal": "3580 fluorescence intensity (a.u.)"},
      {"sequence": "GTGTGGCAAGAGTTTCGCCACGTCAGACATGATGGTGTGGCGGAGTCACCTAGTGCAG", "binding signal": "21200 fluorescence intensity (a.u.)"},
      {"sequence": "CCTGCCAGGGGAGCAACCAAAGCCGCCACGCGCCCACGCTCGGAGTCACCTAGTGCAG", "binding signal": "3290 fluorescence intensity (a.u.)"},
      {"sequence": "GGTAGCAACGCGAGAGGCCGTGGTCCGTCACGGAGTGGCGCGGAGTCACCTAGTGCAG", "binding signal": "3310 fluorescence intensity (a.u.)"},
      {"sequence": "ATGCTAGAAAGTCTTATAACCTGAAACGGAGGTAGTAGGACGGAGTCACCTAGTGCAG", "binding signal": "65000 fluorescence intensity (a.u.)"},
      {"sequence": "CGGTCAAACCATCCACGCCCGTACGTGCGTAGCCAAACTGCGGAGTCACCTAGTGCAG", "binding signal": "3600 fluorescence intensity (a.u.)"},
      {"sequence": "TGTCATAAATTGTACCGACATGATACACATGTCCGATACTCGGAGTCACCTAGTGCAG", "binding signal": "39400 fluorescence intensity (a.u.)"},
      {"sequence": "TCGAGAGGTGGGGAGGGGAGGGGAGCAGAGGGCGGCATCGCGGAGTCACCTAGTGCAG", "binding signal": "5110 fluorescence intensity (a.u.)"},
      {"sequence": "TTAAGCCAGGTCATCTTTGTTAGCCCTTAGATGAATGGTCCGGAGTCACCTAGTGCAG", "binding signal": "31300 fluorescence intensity (a.u.)"},
      {"sequence": "ATTTAGTTGATATGACATGTAAGTGCACTGTAATTTTGATCGGAGTCACCTAGTGCAG", "binding signal": "3750 fluorescence intensity (a.u.)"},
      {"sequence": "TGCAAGTATATTCCGTTCATTGCCAGCTCAAAACCTCTCTCGGAGTCACCTAGTGCAG", "binding signal": "3430 fluorescence intensity (a.u.)"},
      {"sequence": "GTCGGAGACACCGCTCTGGCGTCCGGAGGAATCGATGAGGCGGAGTCACCTAGTGCAG", "binding signal": "12100 fluorescence intensity (a.u.)"},
      {"sequence": "TCGTCAGAAGATGAGTCAGAGGATGATCTGTTGTTCAGTACGGAGTCACCTAGTGCAG", "binding signal": "7090 fluorescence intensity (a.u.)"},
      {"sequence": "CTGCGGCTCCCGCCGGAACCAACGCCATGGTGTCAGATCACGGAGTCACCTAGTGCAG", "binding signal": "3850 fluorescence intensity (a.u.)"},
      {"sequence": "TAGGGTGAAGATTTCTGGTTTTGTATTTAAGGGACCTAAACGGAGTCACCTAGTGCAG", "binding signal": "7690 fluorescence intensity (a.u.)"},
      {"sequence": "TTCCTTTTCTGCGTCACTGGTAGTTACAGTATTTTGGCTACGGAGTCACCTAGTGCAG", "binding signal": "7780 fluorescence intensity (a.u.)"},
      {"sequence": "CCGCCTCCGCGAGTCATCGTCTCTCCAAAGCGAAGCAACCCGGAGTCACCTAGTGCAG", "binding signal": "3340 fluorescence intensity (a.u.)"}
    ]}
  ]
}
